The values below come from PubChem BioAssay AID1508600 (Functional Genomics Laboratory (NCATS/FGL), 2020).

In all, about 53,000 sequences went through this assay and about 3,700 (7%) were called active.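 How the source made its calls: active means gene knockdowns whose robust z-score for IL-1 alpha signal is at least 2 or at most -2, so actives lie on both sides; inactive means the rest.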 The list shows a part of the results.

A short description of this experiment: Components of the Cytosolic LPS Sensing Pathway: Gene Identification via Genome-wide siRNA Screen.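 Further: robust z of the log signal after scaling to non-targeting control siRNA wells of the plate.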 To be noted: RAW264.7 macrophages, IL-1a HTRF, actives lie on both sides, screened at 100 nM (by protocol), cells primed 5 h with Pam3CSK4 first. In a few lines:
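Mouse macrophage line RAW264.7 is transfected with siRNA (100 nM final), grown 48h, primed with TLR ligand Pam3CSK4 5 h and given intracellular LipidA 24 h. IL-1a in supernatant is read by HTRF and viability by luminescence.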
Background: Time-resolved FRET reads energy transfer from a long-lived donor to a nearby acceptor.
For GGUAGUGUCUAACUUCUGGTT against Zkscan17, the z-score is active: 2.13.
On to CGCCUCUAACUUAAUGUUUTT against Dnajc8, for which the z-score was inactive: 0.362.
With GGACUGUGACAAAGCACAUTT against Klk1b4 the figure was inactive: 0.805; with CCACGUCUCUUAAGUGAAATT against Scamp1, inactive: 0.569.
Turning to AGAUAUUUGGCUGUGACCGTT against Amt, the z-score is inactive: -1.33.
Next, GGAGCUCAAGGAAGAGUACTT against Spc25: inactive: -0.0738; UGGUUACGAACCCAUGGGUTT against Amelx: inactive: -1.11; GCAUAAGUAUAAUCCUGUUTT against Plagl1: inactive: -1.67.
With CGAGGGAGACGAAAUUGUCTT against Fuom the figure was inactive: -0.401; with GGAGGAACUGAUGACUCUGTT against Eepd1, inactive: 0.732.
Take GGAAGUAAAGAGGAUCUCATT against Vat1l: the z-score is inactive: -0.678.
With GGGAAACAGAUGAAAGAGUTT against Relch the figure was inactive: 0.0344; with GCUGUAAAACCUGUCGUAATT against Mt4, inactive: -0.196; with GGAAAGAAUUGAAUACUCGTT against Gpr89, inactive: -0.279.
With CCUCAGUUUUGCAUAUUAUTT against Dcun1d3 the figure was inactive: -1.24; with GGAGCUGAAAACCUGAGGATT against Pkn2, inactive: -1.19; with GCGCAUUCAGAUUGUAACATT against Nr2c2, inactive: -0.656.
Regarding GUAUGUUUGGGCUUAGCCUTT against Olfr1348, the z-score was inactive: -1.21.
Next, CCAUGGUUAACAUUGACAUTT against Ppp1r16b: inactive: -0.812; GCAGUGUCAGAGUUAGAAATT against Pon1: inactive: -0.456; CCACCUCACAUUAAAAAAGTT against Smc1a: inactive: -0.686.
For GGUAUGAACACUUUCAAAATT against Olfr297, the z-score is inactive: 0.927.
With GGUGUCCAAGCAGAAGCAGTT against Rab25, the z-score was inactive: -1.02.
With GGUCUUCCGGAUCUUCAACTT against Adcyap1r1, the z-score was inactive: 1.33.
With CCAAUUAUCCUUCUGUUACTT against Olfr790 the figure was inactive: -0.765; with CGAGAAAAGACUAUGAUCCTT against Cep57l1, inactive: -1.27.
With GGAAGAAUCACCAUUGAAGTT against Plcz1, the z-score was inactive: -0.251.
With GGCCUUUUUGCCACGUAUGTT against Dhrs3 the figure was inactive: 0.204.
Next, GGAACAAGUCUUCAACUCATT against Wap: inactive: -0.732.
Next, CGACGAACCUGAGUAUAUUTT against Canx: inactive: -0.0578.
As for GGAAGAAACUGGAAAGAUUTT against Ankrd23, the z-score is inactive: -1.01.
As to CGAAGAAUGACGAUGAUAUTT against Ppp4r3a, the z-score is active: -2.41.
Next, CCACGAAUUAAGUAAUGGUTT against Rtl1: inactive: 1.17; GGGCACAAUUCAAAACUUATT against Pgm2: inactive: 1.42.
With GCACAAACUUAUGCUCUUUTT against Klrc3 the figure was inactive: -1.76; with GCAGCUCACCAUCCUUCAATT against Fcnb, inactive: 0.391; with GGCCUAAUAUUUUCAUAGATT against Prdx6b, inactive: 0.881.
Regarding GGCCAACCUACUUUUCUGGTT against Mgll, the z-score is inactive: -1.18.
Next, GCCAGAAGGACCUCUUCACTT against Arhgap24: inactive: -1.51; “GGAUCAUCAGUUUCUUUAUTT against 4930486L24Rik”: inactive: -0.75.
Take GGGAAGUGGAAACAGUUCUTT against Icam2: the z-score was inactive: 0.461.
Next, GGGAAAUUGUAUUCAAUACTT against Cebpz: inactive: -0.296; GGGUUACACAGAGUACAAATT against Snx15: inactive: -0.484; CGACAAUCAGGAGAUUGCATT against Npm3: inactive: -0.484.
Next, GGCUGAGUCUGGCUAACUUTT against Dio3: inactive: -1.07.
With CCUAAGUAUCUUCUGUUGGTT against Hilpda the figure was inactive: 0.438.
For GCAAGCCAUGAGACACCUUTT against Olfr843, the z-score was inactive: 0.929.
Next, GGAAAGCAUGAGUUAAUAATT against Slain2: inactive: 1.38; CGAUGGAGCUUUCAAAACUTT against Treml4: inactive: 0.617; GCUAUUUCUAGGCAGACUGTT against Ypel5: inactive: 0.642.
As to GGACCAGACUUUGAAGAAUTT against Homer3, the z-score is inactive: 0.777.
With GGACCUGAGAUAUUUUCUGTT against Mfap5 the figure was inactive: -0.518; with GGUGCUGUGAUAGAUCAGUTT against Zdhhc13, inactive: 0.227; with GCCAGACUAAACAAUACCCTT against Cldn19, inactive: 0.305.
With GGCUUAUUAUCAGGAAAUGTT against Plcz1 the figure was inactive: -1.32; with GGAAAUCUUUAUACAAGGATT against Pomgnt1, inactive: 0.923.
Regarding GCUAUCAACAAUCUUCGAATT against Cep131, the z-score is inactive: 1.11.
On to GGUCUUUACCAUACACAGCTT against Zfp352, for which the z-score is inactive: 0.242.
As to GCCCUGGAAAGGAUGUUUGTT against Hba-a1, the z-score was inactive: -0.607.
In the case of GCAAUCACAAUCAGCUCCGTT against Vmn1r83, the z-score was inactive: -0.0498.
With CGUCCUUUAUUAGAGAUGATT against Got1 the figure was inactive: -0.903; with GCCACCAUUCGGAAAUUUGTT against Lrrc56, inactive: -0.891; with CCUGUAUAGGCAGCCUAGATT against Carmil3, inactive: 0.982.
With GGUUGGUUUGAAGAUCAAGTT against Pole2 the figure was inactive: 1.38; with GCUACUAUUGUGUUCUGAATT against Drd1, active: 2.24.
Next, GGUUCCAAGUCUAGUGGUGTT against Jpt1: inactive: 1.48; GGGCAGAUGUAAUUCUUGUTT against Ctsm: inactive: 1.91.
On to CCAGCAUGCACUCAGAUUATT against Trib1, for which the z-score was inactive: 1.5.
